Test in all cases: co-IP; endogenous proteins in melanocyte lysate; primary antibody (anti-Cdk5; reciprocal: anti-p35 or anti-K10) overnight at 4 °C, protein G agarose beads 2 h at 4 °C; Western blot; IgG as negative control
Test [1] has as its target T1, Keratin 10 (not stated (alpaca melanocytes in the results, mouse melanocytes in the methods)) (UniProt P02535).
T1 sequence: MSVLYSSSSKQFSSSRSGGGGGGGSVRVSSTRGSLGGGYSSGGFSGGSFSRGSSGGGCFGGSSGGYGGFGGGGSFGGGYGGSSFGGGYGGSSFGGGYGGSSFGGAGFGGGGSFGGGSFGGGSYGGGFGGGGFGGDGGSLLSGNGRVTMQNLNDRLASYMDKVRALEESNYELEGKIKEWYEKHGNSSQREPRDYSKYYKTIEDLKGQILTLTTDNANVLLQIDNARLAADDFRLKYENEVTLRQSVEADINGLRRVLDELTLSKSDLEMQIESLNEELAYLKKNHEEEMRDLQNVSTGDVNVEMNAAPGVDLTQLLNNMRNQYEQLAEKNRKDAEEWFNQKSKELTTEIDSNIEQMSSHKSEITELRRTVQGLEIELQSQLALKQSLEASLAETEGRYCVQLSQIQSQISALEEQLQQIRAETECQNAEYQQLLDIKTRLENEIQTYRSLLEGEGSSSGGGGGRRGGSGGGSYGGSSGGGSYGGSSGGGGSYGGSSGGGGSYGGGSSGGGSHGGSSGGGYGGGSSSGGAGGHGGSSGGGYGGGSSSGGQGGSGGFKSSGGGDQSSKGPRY

Chains of the proteins cited; added tags and fusions are not shown.
UniProt P61809: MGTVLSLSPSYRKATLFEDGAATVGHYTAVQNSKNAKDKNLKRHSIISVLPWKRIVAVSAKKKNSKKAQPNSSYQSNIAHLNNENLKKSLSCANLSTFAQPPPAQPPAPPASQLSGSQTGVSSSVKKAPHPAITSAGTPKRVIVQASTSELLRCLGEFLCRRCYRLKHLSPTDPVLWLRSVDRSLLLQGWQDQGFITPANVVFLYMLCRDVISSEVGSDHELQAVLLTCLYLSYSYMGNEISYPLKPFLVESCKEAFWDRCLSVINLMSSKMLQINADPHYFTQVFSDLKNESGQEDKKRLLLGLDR

Test [2] concerns the target p35 (mouse) (mouse (endogenous in mouse melanocytes)) (UniProt P61809).
The target of test [3] is cyclin-dependent kinase 5 (mouse) (mouse (endogenous in mouse melanocytes)) (UniProt P49615).
For test [4], the target named is cyclin-dependent kinase 5 (melanocytes of the K10 experiments) (not stated (alpaca melanocytes in the results, mouse melanocytes in the methods)) (UniProt P49615).

Consider 4 molecules from article PMC5653820.

No constants are given. Whether binding was seen depends on the method and setting. In cells and extracts the contact can be indirect. Some entries that bind do so weakly or less than the wild type.

Take “cyclin-dependent kinase 5 (melanocytes of the K10 experiments) (from UniProt P49615 1-292) (enzyme)”: in test [1], the binding result is reported as “binds”.

As for “cyclin-dependent kinase 5 (mouse) (from UniProt P49615 1-292) (enzyme)”, the binding result in test [2] is reported as “binds”.

Turning to p35 (mouse) (from UniProt P61809 1-307), the binding entry in test [3] is given as “binds”.

B1: Keratin 10 (protein, UniProt P02535 1-570)
chain: T1 sequence
For B1, the binding result in test [4] is reported as “binds”.
